Assay [1] deals with MDH2-VYNE (Arabidopsis thaliana) (UniProt Q9LKA3). Put plainly: split reporter; BiFC: SCYCE- and VYNE-tagged proteins transiently expressed in Arabidopsis mesophyll protoplasts, confocal microscopy with MitoTracker orange.
Assay [2] has as its target T1, CSY4-SCYCE (Arabidopsis thaliana) (UniProt P20115).
T1 sequence: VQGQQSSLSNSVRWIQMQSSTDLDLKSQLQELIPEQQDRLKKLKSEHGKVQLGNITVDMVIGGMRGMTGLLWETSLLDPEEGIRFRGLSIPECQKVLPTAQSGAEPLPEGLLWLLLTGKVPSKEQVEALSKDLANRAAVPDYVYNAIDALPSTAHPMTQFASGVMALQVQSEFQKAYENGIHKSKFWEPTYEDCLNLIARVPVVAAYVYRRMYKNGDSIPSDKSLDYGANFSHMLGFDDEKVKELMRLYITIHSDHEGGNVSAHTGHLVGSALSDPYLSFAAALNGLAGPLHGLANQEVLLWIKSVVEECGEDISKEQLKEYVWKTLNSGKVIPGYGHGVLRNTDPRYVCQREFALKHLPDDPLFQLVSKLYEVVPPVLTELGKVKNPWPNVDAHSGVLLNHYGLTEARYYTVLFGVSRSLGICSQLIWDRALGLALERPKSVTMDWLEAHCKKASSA
The assay is described as above.

By UniProt entry, the sequences of proteins in these tests, tags left out. Where a name states a change or a piece, a line headed by the entry shows the natural chain unless it says otherwise. Residues count along the entry.
UniProt Q9LKA3: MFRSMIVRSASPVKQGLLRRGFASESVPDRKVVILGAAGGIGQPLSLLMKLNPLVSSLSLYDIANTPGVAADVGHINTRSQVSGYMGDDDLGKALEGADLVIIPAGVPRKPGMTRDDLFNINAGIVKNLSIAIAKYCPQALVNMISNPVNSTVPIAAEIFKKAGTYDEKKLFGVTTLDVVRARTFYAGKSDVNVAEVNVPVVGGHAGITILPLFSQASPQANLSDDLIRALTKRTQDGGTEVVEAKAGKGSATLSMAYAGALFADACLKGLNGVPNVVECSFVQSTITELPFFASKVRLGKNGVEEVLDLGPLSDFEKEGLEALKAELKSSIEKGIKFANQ
UniProt P93033, residues 29-492: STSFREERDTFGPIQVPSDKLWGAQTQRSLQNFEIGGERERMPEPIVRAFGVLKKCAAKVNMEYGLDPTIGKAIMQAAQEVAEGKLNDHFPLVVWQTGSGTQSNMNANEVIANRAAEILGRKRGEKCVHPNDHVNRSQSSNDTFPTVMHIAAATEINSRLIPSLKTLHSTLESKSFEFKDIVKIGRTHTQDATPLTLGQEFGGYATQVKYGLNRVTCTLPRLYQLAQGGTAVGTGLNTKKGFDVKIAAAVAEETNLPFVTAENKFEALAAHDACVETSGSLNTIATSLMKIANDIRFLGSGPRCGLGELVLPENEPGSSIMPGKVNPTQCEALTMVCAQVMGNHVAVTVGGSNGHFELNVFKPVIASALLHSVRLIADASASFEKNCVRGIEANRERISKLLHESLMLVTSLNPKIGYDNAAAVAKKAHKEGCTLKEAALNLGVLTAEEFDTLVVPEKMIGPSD
UniProt Q9ZP06: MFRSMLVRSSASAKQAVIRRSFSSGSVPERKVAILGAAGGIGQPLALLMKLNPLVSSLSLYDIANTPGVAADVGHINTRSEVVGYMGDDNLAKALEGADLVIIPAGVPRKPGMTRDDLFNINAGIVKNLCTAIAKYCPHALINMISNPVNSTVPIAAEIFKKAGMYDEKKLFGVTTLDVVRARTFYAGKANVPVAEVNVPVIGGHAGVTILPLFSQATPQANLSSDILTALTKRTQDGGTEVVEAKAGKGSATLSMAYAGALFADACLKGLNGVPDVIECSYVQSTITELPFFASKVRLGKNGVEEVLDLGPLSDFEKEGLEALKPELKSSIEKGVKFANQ

No constants are given. Whether binding was seen depends on the method and setting. Binding seen in cells or lysates may run through a third protein. Binding calls can cover weak binding; strength is not graded here.

Turning to “FUM1-SCYCE (from UniProt P93033 29-492) (enzyme)”, the binding entry in assay [1] was “binds”.

In the case of “MDH1-VYNE (from UniProt Q9ZP06) (enzyme)”, the binding result in assay [2] is reported as “binds”. Still for that read-out and setting: under “MDH2-VYNE (from UniProt Q9LKA3) (enzyme)” stands “binds”.
